Test results from article PMC6365587.
Results are given in words; binding and its absence hold for the method and conditions named. Binding seen in cells or lysates may run through a third protein. Some results given as binding are weak or reduced against the parent protein; the word gives no strength. For some of these results: Where a sequence is shown, tags or fusion partners need not be part of it.

By UniProt entry, the sequences of proteins in these tests, tags left out. Where a name states a change or a piece, a line headed by the entry shows the natural chain unless it says otherwise. Chains listed by the source or under a name are the forms on record and can include a tag or linker. Residues count along the entry.
UniProt P35226: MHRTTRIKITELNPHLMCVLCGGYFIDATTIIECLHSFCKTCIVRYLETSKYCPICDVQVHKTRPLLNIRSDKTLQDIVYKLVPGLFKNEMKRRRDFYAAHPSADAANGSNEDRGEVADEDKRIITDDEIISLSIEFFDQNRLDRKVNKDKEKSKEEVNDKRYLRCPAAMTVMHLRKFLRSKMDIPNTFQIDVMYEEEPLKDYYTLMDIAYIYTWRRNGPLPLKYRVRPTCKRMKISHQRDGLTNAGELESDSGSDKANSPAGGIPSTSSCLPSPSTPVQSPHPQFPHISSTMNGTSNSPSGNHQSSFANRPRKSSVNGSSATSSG
GFP-tagged Lamin A (P02545, residues 1-646): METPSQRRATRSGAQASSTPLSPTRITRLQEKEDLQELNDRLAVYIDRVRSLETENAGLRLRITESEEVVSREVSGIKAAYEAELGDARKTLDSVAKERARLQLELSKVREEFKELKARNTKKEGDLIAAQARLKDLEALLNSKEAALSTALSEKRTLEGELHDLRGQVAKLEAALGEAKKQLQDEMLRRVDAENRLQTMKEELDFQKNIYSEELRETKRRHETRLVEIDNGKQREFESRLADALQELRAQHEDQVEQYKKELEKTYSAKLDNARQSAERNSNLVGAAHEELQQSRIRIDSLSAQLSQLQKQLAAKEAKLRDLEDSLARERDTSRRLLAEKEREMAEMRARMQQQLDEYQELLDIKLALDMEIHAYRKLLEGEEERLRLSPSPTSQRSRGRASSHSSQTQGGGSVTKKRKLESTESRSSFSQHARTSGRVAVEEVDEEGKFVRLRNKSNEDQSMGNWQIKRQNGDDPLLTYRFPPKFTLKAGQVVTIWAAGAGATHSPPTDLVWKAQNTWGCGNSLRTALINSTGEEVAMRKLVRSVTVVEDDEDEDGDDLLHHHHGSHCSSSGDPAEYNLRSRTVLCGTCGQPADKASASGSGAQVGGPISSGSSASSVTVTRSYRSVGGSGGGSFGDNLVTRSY
GFP-tagged Lamin C (P02545-2, form named): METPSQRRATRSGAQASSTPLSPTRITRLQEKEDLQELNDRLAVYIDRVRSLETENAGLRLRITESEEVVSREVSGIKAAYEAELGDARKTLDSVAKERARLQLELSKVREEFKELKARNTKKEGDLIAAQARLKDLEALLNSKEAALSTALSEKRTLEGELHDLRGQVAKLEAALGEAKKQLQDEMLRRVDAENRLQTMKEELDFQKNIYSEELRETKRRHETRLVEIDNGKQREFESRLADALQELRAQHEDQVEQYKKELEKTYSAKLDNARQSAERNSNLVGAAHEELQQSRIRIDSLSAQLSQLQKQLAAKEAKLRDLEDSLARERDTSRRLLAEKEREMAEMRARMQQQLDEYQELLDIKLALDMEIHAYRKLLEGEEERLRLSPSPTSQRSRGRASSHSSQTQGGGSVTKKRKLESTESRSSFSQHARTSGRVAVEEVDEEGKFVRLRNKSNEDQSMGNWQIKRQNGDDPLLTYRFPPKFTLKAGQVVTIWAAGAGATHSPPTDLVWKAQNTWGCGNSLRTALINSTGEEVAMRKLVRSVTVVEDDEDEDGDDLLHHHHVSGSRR
GFP-tagged progerin (P02545-6, form named): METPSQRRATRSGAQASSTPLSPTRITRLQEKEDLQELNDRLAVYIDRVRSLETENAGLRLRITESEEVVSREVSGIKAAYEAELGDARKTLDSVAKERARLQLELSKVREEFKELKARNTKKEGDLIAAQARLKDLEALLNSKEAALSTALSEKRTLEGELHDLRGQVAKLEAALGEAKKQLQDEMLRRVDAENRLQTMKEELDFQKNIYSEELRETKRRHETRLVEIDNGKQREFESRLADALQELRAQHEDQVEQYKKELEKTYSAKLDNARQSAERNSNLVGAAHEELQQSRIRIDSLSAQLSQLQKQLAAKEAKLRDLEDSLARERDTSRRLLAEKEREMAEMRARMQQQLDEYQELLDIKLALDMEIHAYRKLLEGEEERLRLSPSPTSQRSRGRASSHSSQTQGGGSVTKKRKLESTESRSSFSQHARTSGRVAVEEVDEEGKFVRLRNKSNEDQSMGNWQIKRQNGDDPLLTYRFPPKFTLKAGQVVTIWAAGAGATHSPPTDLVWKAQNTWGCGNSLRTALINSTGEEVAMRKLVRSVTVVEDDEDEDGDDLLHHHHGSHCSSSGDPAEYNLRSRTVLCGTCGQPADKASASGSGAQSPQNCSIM

What was measured:
[1] = biological target: GST-bead-fused p53 middle region (UniProt P04637); assay: pull-down; GST-bead-fused p53 N-terminal or middle region incubated with lysate of HEK293 cells transfected with GFP-Lamin A, B, C or PRG, room temperature, 3 h; washed once each with PBS and RIPA buffer; blot with anti-GFP and GST; only the target purified
FLAG-tagged MEL-18 = biological target: T1, FLAG-tagged MEL-18 (UniProt P35227); assay: co-IP; whole-cell lysates expressing FLAG-tagged MEL-18 or BMI-1 and GFP-tagged Lamins; anti-FLAG antibody 4 °C 2 h, protein A/G agarose 4 °C 2 h; washed with RIPA buffer; blot with anti-FLAG, Actin and GFP
T1 sequence: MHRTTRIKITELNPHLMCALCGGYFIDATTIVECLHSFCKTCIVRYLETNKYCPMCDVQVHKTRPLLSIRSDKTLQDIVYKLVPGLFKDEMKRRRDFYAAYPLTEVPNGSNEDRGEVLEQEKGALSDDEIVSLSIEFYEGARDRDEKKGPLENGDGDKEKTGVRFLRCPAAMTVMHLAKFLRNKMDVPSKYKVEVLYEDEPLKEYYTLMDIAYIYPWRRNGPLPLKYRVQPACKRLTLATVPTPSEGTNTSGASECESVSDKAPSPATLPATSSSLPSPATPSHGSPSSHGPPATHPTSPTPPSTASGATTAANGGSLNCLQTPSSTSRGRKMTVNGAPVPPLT

FLAG-tagged BMI-1 = FLAG-tagged BMI-1 (UniProt P35226); assay: as above
[2] = biological target: GST-bead-fused p53 N-terminal region (UniProt P04637); assay: pull-down; GST-bead-fused p53 N-terminal or middle region incubated with lysate of HEK293 cells transfected with GFP-Lamin A, B, C or PRG, room temperature, 3 h; washed once each with PBS and RIPA buffer; blot with anti-GFP and GST; only the target purified

Measured: binding

GFP-tagged Lamin C (from UniProt P02545-2 1-572)
binds: [1] | FLAG-tagged MEL-18 | FLAG-tagged BMI-1

GFP-tagged Lamin A (from UniProt P02545 1-646)
binds: [1] | FLAG-tagged MEL-18 | FLAG-tagged BMI-1

GFP-tagged progerin (from UniProt P02545-6 1-614)
binds: all assays above
